# Earlier results in patent US20070166816A1, “Assay device that analyzes the absorption, metabolism, permeability and/or toxicity of a candidate compound” (Surface Logix, Inc., priority 2002, published 2007).
# System: Caco-2 cells
# Settings: previously characterized in Caco-2 assays; qualitative grade
structure (smiles),measurement,value
NS(=O)(=O)c1cc(C(=O)O)c(NCc2ccco2)cc1Cl [Furosemide],Absorbance in vitro,Very Low
